Data as given in PubChem BioAssay AID686943 (Drosophila RNAi Screening Center, 2013).
In all, the deposit lists about 23,000 reagents; below is a random part of those that have a named target and a result. 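Extra replicates exist only for a retested subset of genes; insulin dose and duration not given; both raised and lowered dpERK matter.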 Not stated in the record: the amount of reagent, the time to read-out.

Purpose: 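Knockdowns that increase or decrease active ERK after insulin receptor stimulation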 (primary screen)
Cell system: Drosophila S2R+ haemocyte-like cells expressing YFP-tagged ERK (Rolled)
Reagent: long dsRNA against Drosophila genes
Treatment: insulin stimulation versus unstimulated cells; dose and duration not given
Read-out: 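Antibody staining for doubly phosphorylated ERK divided by ERK-YFP signal, as plate z-scores, in insulin-treated and untreated cells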
Direction: replicate 1, z-score of dpERK with insulin and replicate 2, z-score of dpERK with insulin: higher = more active ERK per ERK-YFP after insulin; replicate 1, z-score of dpERK under basal conditions: higher = more basal active ERK per ERK-YFP; replicate 1, z-score of ERK-YFP with insulin: higher = more YFP-tagged ERK signal

Target gene	amplicon	replicate 1, z-score of dpERK with insulin	replicate 2, z-score of dpERK with insulin	replicate 1, z-score of dpERK under basal conditions	replicate 1, z-score of ERK-YFP with insulin
CG8838	DRSC00712	-0.28	-0.15	-1.49	0.02
Spn28B (Serpin 28B)	DRSC02982	0.38	0.15	0.77	-1.31
CG9356	DRSC16476	-0.43	0.03	-0.16	-0.27
CG9003	DRSC07317	0.36	1.01	0.11	0
Nurf-38 (Nucleosome remodeling factor - 38kD)	DRSC04629	-0.23	-0.01	0.59	-0.89
TfIIS (RNA polymerase II elongation factor)	DRSC03455	-0.05	-0.37	-0.49	0.7
Tm1 (Tropomyosin 1)	DRSC13082	-0.76	0.81	0.75	1.23
Tm1 (Tropomyosin 1)	DRSC13083	0.66	1.23	1	1.02
Tm1 (Tropomyosin 1)	DRSC16886	0.3	0.3	-0.7	-0.4
CG9782	DRSC19145	0	-0.54	0.13	-0.13
CG9782	DRSC20209	1.15	0.42	-1.1	0.25
CG3223	DRSC15468	-0.99	0.99	-1.43	0.36
CG15533	DRSC15069	0.1	0	1.19	0.03
ush (u-shaped)	DRSC00843	4.87	6.26	1.2	-2.42

Next part, starting with the last 2 of the part before.
Target gene	amplicon	replicate 1, z-score of dpERK with insulin	replicate 2, z-score of dpERK with insulin	replicate 1, z-score of dpERK under basal conditions	replicate 1, z-score of ERK-YFP with insulin
CG15533	DRSC15069	0.1	0	1.19	0.03
ush (u-shaped)	DRSC00843	4.87	6.26	1.2	-2.42
PH4alphaNE2 (prolyl-4-hydroxylase-alpha NE2)	DRSC16544	0.82	0.1	-0.41	-0.16
MED17 (Mediator complex subunit 17)	DRSC16889	2.12	3.76	0.96	-2
mthl13 (methuselah-like 13)	DRSC05238	-0.25	0.59	0.97	0.39
CG14011	DRSC02343	-0.54	-0.09	1.1	0.17
Cpr97Eb (Cuticular protein 97Eb)	DRSC15123	0.49	-0.18	-0.9	-0.36
CG4537	DRSC02756	-0.31	-0.31	-0.15	-0.2
CG14626	DRSC18631	0	0	0.41	0.43
Nthl1 (Nth-like DNA glycosylase 1)	DRSC03183	2.28	-0.01	-0.21	-2.04
CG10510	DRSC11614	-0.04	-0.43	2.32	-0.89
